In patent US9745346B2, “Antimicrobial peptides and their application” (INFINITEC ACTIVOS S.L., priority 2014, dated 2017):
At least one peptide structure holds a part that was inferred or is arguable (an end, a ring closure or a residue). Some results were stated once for a whole list of compounds, not compound by compound. Some compounds share one range, which may span the group rather than tell each member. *1 amine or outer side, *2 acyl side, *3 side chain or, on linkers, in order; H or OH if unused. Where a SMILES comes first, the peptide text is derived from it. The star is where a group is joined. NH(CH2)3(OCH2CH2)2O(CH2)3NH = C(CN[*:1])COCCOCCOCCCN[*:2]; Palmitoyl = CCCCCCCCCCCCCCCC(=O)*

What was measured:
[1] = tested on: LPS from E. Coli 055:B5; test: LPS-neutralizing activity, chromogenic Limulus Amebocyte Lysate (LAL) test; assay type: biochemical; conditions: LPS 100 pg/mL, 45 min at 37° C., read-out: LPS-neutralization activity IC50 ± SD
Protocol: All solutions used in the LPS-neutralizing activity assay were tested to ensure they were endotoxin-free and material was sterilized by heating 3 h at 180° C. LPS from E. Coli 055:B5 and Polymyxin B were purchased from Sigma. LPS-neutralizing activity was measured using the chromogenic Limulus Amebocyte Lysate (LAL) test 40 following the manufacturer's instructions (Cambrex). LAL reagent contains a clottable protein that is activated in the presence of non-neutralized LPS and is an extremely sensitive indicator of the presence of endotoxin. When activated, this enzyme catalyses the release of p-nitroaniline (pNA) from the colorless chromogenic substrate Ac-Ile-Glu-Ala-Arg-pNA. The pNA released was measured photometrically at 405 nm in a Rosys Anthos 2010 microtiter plate reader (Tecnomara AG, Zurich, Switzerland). Peptides were incubated at a range of concentrations (200 to 0.001 μM) with LPS (100 pg/mL) in a 96-well microtiter for 45 min at 37° C. Polymyxin B (10 μg/mL) was used as positive control. LAL (12.5 μL) was added to start the reaction at 37° C. After 16 min, non-neutralized LPS was detected after a 10 min incubation with the chromogenic substrate (25 μ) Acetic acid (25% v/v final concentration) was added to stop the reaction and the absorbance was monitored at 405 nm in a Multiskan Ascent microtiter plate reader (ThermoLabsystems). IC50 (the concentration necessary to in vitro neutralize 50% of LPS) values were determined by a serial dilution assay using 100 pg/mL of LPS and a range of peptide concentrations as mentioned above.

[2] = tested on: a variety of fungi; test: MIC, summary over fungi; assay type: cell-based; conditions: summary range, in the order of
[3] = tested on: a variety of Gram-negative bacteria; conditions: summary range, in the order of
[4] = tested on: a variety of Gram-positive bacteria; conditions: summary range, in the order of

| Compound | IC50 [1] | minimum inhibitory concentrations against a variety of fungi [2] | minimum inhibitory concentrations against a variety of Gram-negative bacteria [3] | minimum inhibitory concentrations against a variety of Gram-positive bacteria [4] |
| --- | --- | --- | --- | --- |
| CCCCCCCCCCCCCCCC(=O)N[C@@H](CCCCN)C(=O)N[C@@H](C)C(=O)N[C@@H](CCC(N)=O)C(=O)N[C@@H](CCCCN)C(=O)N[C@@H](CCCNC(=N)N)C(=O)N[C@@H](Cc1ccccc1)C(=O)NCCCOCCOCCOCCCN [Example 3, Palm-KAQKRF-NH—(CH2)3—(OCH2CH2)3—CH2—NH2] (Palmitoyl-KAQKRF-{NH(CH2)3(OCH2CH2)2O(CH2)3NH}) | 4 µM | 0.1 to 0.5 µg/mL | 5 to 35 µg/mL | 5 to 15 µg/mL |
| CCCCCCCCCCCCCCCC(=O)N[C@@H](CCCCN)C(=O)N[C@@H](C)C(=O)N[C@@H](CCC(N)=O)C(=O)N[C@@H](CCCCN)C(=O)N[C@@H](CCCNC(=N)N)C(=O)N[C@@H](Cc1ccccc1)C(N)=O [Example 2, Palm-KAQKRF-NH2] (Palmitoyl-KAQKRF-NH2) | 11 µM | 0.1 to 0.5 µg/mL | 5 to 35 µg/mL | 5 to 15 µg/mL |
| CC(=O)N[C@@H](CCCCN)C(=O)N[C@@H](C)C(=O)N[C@@H](CCC(N)=O)C(=O)N[C@@H](CCCCN)C(=O)N[C@@H](CCCNC(=N)N)C(=O)N[C@@H](Cc1ccccc1)C(N)=O [Example 1, Ac-KAQKRF-NH2] (Ac-KAQKRF-NH2) | 18 µM | 0.1 to 0.5 µg/mL | 5 to 35 µg/mL | 5 to 15 µg/mL |
